Measured values as given in article PMC8101328.
No constants are given. Whether binding was seen depends on the method and setting. Binding calls can cover weak binding; strength is not graded here. Where a sequence is shown, tags or fusion partners need not be part of it.

T1: T25-EpsD(25-674) (pKT25-epsD two-hybrid fusion) (Vibrio cholerae (N16961)) (UniProt P45779)
T1 sequence: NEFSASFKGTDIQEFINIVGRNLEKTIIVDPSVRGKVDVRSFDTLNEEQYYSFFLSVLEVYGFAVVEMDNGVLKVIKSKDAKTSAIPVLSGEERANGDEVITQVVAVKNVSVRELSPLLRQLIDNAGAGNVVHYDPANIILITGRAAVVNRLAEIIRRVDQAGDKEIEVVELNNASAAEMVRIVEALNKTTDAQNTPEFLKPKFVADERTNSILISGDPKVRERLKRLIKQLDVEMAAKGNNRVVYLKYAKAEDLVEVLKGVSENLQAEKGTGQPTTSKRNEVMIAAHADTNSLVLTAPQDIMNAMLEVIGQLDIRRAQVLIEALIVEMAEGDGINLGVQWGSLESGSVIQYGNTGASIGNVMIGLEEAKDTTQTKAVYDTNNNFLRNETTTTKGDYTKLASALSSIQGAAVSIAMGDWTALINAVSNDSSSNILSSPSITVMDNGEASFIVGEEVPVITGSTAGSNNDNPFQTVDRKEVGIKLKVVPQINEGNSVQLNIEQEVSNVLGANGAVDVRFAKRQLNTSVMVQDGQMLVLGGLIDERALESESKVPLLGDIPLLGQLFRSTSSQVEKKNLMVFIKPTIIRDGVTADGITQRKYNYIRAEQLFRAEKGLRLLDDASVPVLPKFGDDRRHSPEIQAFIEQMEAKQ

B1: GST-tagged EpsD (340-675 aa) (domain or fragment, UniProt P45779 340-674)
chain: RRAQVLIEALIVEMAEGDGINLGVQWGSLESGSVIQYGNTGASIGNVMIGLEEAKDTTQTKAVYDTNNNFLRNETTTTKGDYTKLASALSSIQGAAVSIAMGDWTALINAVSNDSSSNILSSPSITVMDNGEASFIVGEEVPVITGSTAGSNNDNPFQTVDRKEVGIKLKVVPQINEGNSVQLNIEQEVSNVLGANGAVDVRFAKRQLNTSVMVQDGQMLVLGGLIDERALESESKVPLLGDIPLLGQLFRSTSSQVEKKNLMVFIKPTIIRDGVTADGITQRKYNYIRAEQLFRAEKGLRLLDDASVPVLPKFGDDRRHSPEIQAFIEQMEAKQ

How the values were obtained:
[1] = target: T1, T25-EpsD(25-674) (pKT25-epsD two-hybrid fusion) (Vibrio cholerae (N16961)); assay: two-hybrid
[2] = target: His6-tagged gp20 (tail fiber protein of phage VP2) (Vibrio cholerae phage VP2); assay: pull-down; both purified

Row | Molecule | binding [1] | binding [2]
1 | T18-gp20 (pUT18C-gp20 two-hybrid fusion) (Vibrio cholerae phage VP2) | binds | –
2 | B1 | – | binds
